Reference: the supplement of paper PMC4635364
Where a name gives a salt, the structure may show the parent alone. This is one part of the list. Single values are uncertain here, since repeats match poorly.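 Human fetal ventral-midbrain neural progenitor line ReNCell VM, differentiated without mitogens. Images stained for doublecortin (early neurons) or tyrosine hydroxylase (dopaminergic neurons) were scored by blinded raters against untreated wells (0 = no change). Repeats and both raters were averaged, and compounds averaging 2 or higher were picked as hits for retesting.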

Assays:
ReNCell VM [1] = assay: neuronal differentiation score (DCX+ cell fraction vs untreated, manual image score) (score (-3 to 3)); higher = more neuronal differentiation; details: 2 uM, 2 weeks
ReNCell VM [2] = assay: dopaminergic neuron differentiation score (TH+ cell fraction vs untreated, manual image score) (score (0 to 3)); higher = more TH+ dopaminergic neuron differentiation; details: 2 uM, 4 weeks, BDNF 10 ng/ml + GDNF 10 ng/ml

## CN1CCCN=C1/C=C/c1cccs1 [Pyrantel tartrate]
ReNCell VM [1]; library: Prestwick
  neuronal differentiation score: inactive: 0
ReNCell VM [2]; library: Prestwick
  dopaminergic neuron differentiation score: inactive: 0

## CC1(C)O[C@@H]2C[C@H]3[C@@H]4C[C@H](F)C5=CC(=O)C=C[C@]5(C)[C@H]4[C@@H](O)C[C@]3(C)[C@]2(C(=O)CO)O1 [Flunisolide]
ReNCell VM [1]; library: Prestwick
  neuronal differentiation score: inactive: 0
ReNCell VM [2]; library: Prestwick
  dopaminergic neuron differentiation score: inactive: 0

## O=C(O)c1cc(=O)[nH]c(=O)[nH]1
ReNCell VM [1]; library: Spectrum
  neuronal differentiation score: inactive: 0
ReNCell VM [2]; library: Spectrum
  dopaminergic neuron differentiation score: inactive: 0

## CSc1nc(N)c2ncn([C@@H]3O[C@H](COP(=O)(O)OP(=O)(O)OP(=O)(O)O)[C@H](O)C3O)c2n1 (stereo partly drawn) [2-Methylthioadenosine triphosphate tetrasodium]
ReNCell VM [1]; library: LOPAC
  neuronal differentiation score: inactive: 0
ReNCell VM [2]; library: LOPAC
  dopaminergic neuron differentiation score: inactive: 0

## CC[N+](CC)(CC)CC(=O)Nc1c(C)cccc1C [QX 314 bromide]
ReNCell VM [1]; library: Tocriscreen
  neuronal differentiation score: inactive: 0
ReNCell VM [2]; library: Tocriscreen
  dopaminergic neuron differentiation score: inactive: 0

## O=C(O)c1ccccc1
ReNCell VM [1]; library: Spectrum
  neuronal differentiation score: inactive: 0
ReNCell VM [2]; library: Spectrum
  dopaminergic neuron differentiation score: inactive: 1

## CCC[C@H](N[C@@H](C)C(=O)N1[C@H](C(=O)O)C[C@@H]2CCCC[C@@H]21)C(=O)OCC [Perindopril]
ReNCell VM [1]; library: Prestwick
  neuronal differentiation score: inactive: 0
ReNCell VM [2]; library: Prestwick
  dopaminergic neuron differentiation score: inactive: 0

## CC1=CC(=O)CC(C)(C)C1(O)/C=C/C(C)=C\C(=O)O (mixture of isomers) [abscisic acid (cis,trans, +/-)]
ReNCell VM [1]; library: Natural
  neuronal differentiation score: inactive: 0
ReNCell VM [2]; library: Natural
  dopaminergic neuron differentiation score: inactive: 0

## CCCc1nc(C)c2c(O)nc(-c3cc(S(=O)(=O)N4CCN(CC)CC4)ccc3OCC)nn12
ReNCell VM [1]; library: Spectrum
  neuronal differentiation score: inactive: 0
ReNCell VM [2]; library: Spectrum
  dopaminergic neuron differentiation score: inactive: 1

## CCN1C(=O)NC(c2ccccc2)C1=O (stereo not drawn)
ReNCell VM [1]; library: Spectrum
  neuronal differentiation score: inactive: 0
ReNCell VM [2]; library: Spectrum
  dopaminergic neuron differentiation score: inactive: 0

## CC1(C)O[C@H]2CC(=O)OC[C@]23[C@H]2CC[C@@]4(C)[C@H](c5ccoc5)OC(=O)[C@H]5O[C@]54[C@]2(C)C(=O)C[C@@H]13
ReNCell VM [1]; library: Spectrum
  neuronal differentiation score: inactive: 0
ReNCell VM [2]; library: Spectrum
  dopaminergic neuron differentiation score: inactive: 0

## CC1(C)CCC[C@]2(C)[C@H]3CC(=O)O[C@]3(C)CC[C@@H]12
ReNCell VM [1]; library: Spectrum
  neuronal differentiation score: inactive: 0
ReNCell VM [2]; library: Spectrum
  dopaminergic neuron differentiation score: inactive: 0

## Oc1c(Cl)cc(Cl)c(Cl)c1Cc1c(O)c(Cl)cc(Cl)c1Cl
ReNCell VM [1]; library: Spectrum
  neuronal differentiation score: inactive: 0
ReNCell VM [2]; library: Spectrum
  dopaminergic neuron differentiation score: inactive: 0

## CC1=CC(=O)C2=C(C)CC[C@@H]3[C@H](OC(=O)[C@H]3C)[C@@H]12 [Leucomisine]
ReNCell VM [1]; library: Phytochemical
  neuronal differentiation score: inactive: 0
ReNCell VM [2]; library: Phytochemical
  dopaminergic neuron differentiation score: inactive: 0

## CC(=O)Oc1ccc2c(c1)CCC1C2CC[C@]2(C)C(=O)CCC12 (stereo partly drawn)
ReNCell VM [1]; library: Spectrum
  neuronal differentiation score: inactive: 0
ReNCell VM [2]; library: Spectrum
  dopaminergic neuron differentiation score: inactive: 0

## COC1CCC(C(=O)c2ccc3nc4c(cc3c2)CCCO4)CC1 (stereo not drawn)
ReNCell VM [1]; library: Tocriscreen
  neuronal differentiation score: inactive: 0
ReNCell VM [2]; library: Tocriscreen
  dopaminergic neuron differentiation score: inactive: 0

## CCn1cc(C(=O)O)c(=O)c2ccc(C)nc21 [Nalidixic acid sodium]
ReNCell VM [1]; library: LOPAC
  neuronal differentiation score: inactive: 0
ReNCell VM [2]; library: LOPAC
  dopaminergic neuron differentiation score: inactive: 0

## CC(=O)O[C@@H]1CC[C@@]2(C)C(C[C@@H](OC(C)=O)[C@@]3(C)C4=CC(=O)O[C@@H](c5ccoc5)[C@]4(C)CCC23)C1(C)C (stereo partly drawn) [3alpha-ACETOXYDIHYDRODEOXYGEDUNIN]
ReNCell VM [1]; library: Spectrum
  neuronal differentiation score: inactive: 0
ReNCell VM [2]; library: Spectrum
  dopaminergic neuron differentiation score: inactive: 0

## O=C(O)c1cc(=O)cc(C(=O)O)[nH]1 [Chelidamic acid]
ReNCell VM [1]; library: LOPAC
  neuronal differentiation score: inactive: 0
ReNCell VM [2]; library: LOPAC
  dopaminergic neuron differentiation score: inactive: 1

## O=C1C(=O)N(Cc2ccc(Cl)c(Cl)c2)c2ccccc21 [Apoptosis Activator 2]
ReNCell VM [1]; library: Tocriscreen
  neuronal differentiation score: inactive: 0
ReNCell VM [2]; library: Tocriscreen
  dopaminergic neuron differentiation score: inactive: 0

## O=c1cc(N2CCNCC2)oc2c(-c3ccccc3)cccc12
ReNCell VM [1]; library: Tocriscreen
  neuronal differentiation score: inactive: 0
ReNCell VM [2]; library: Tocriscreen
  dopaminergic neuron differentiation score: inactive: 0

## COc1cc(OC)c2ccc(=O)oc2c1
ReNCell VM [1]; library: Spectrum
  neuronal differentiation score: inactive: 0
ReNCell VM [2]; library: Spectrum
  dopaminergic neuron differentiation score: inactive: 0

## OC(CCN1CCCCC1)(c1ccccc1)c1ccccc1
ReNCell VM [1]; library: Spectrum
  neuronal differentiation score: inactive: 0
ReNCell VM [2]; library: Spectrum
  dopaminergic neuron differentiation score: inactive: 0

## COC(=O)C(OC)=C(OC)c1ccccc1OC
ReNCell VM [1]; library: Spectrum
  neuronal differentiation score: inactive: 0
ReNCell VM [2]; library: Spectrum
  dopaminergic neuron differentiation score: inactive: 0

## O=C(O)c1cccnc1Nc1cccc(C(F)(F)F)c1
ReNCell VM [1]; library: Spectrum
  neuronal differentiation score: inactive: 0
ReNCell VM [2]; library: Spectrum
  dopaminergic neuron differentiation score: inactive: 0

## OCC(O)CN1CCN(c2ccccc2)CC1 (stereo not drawn)
ReNCell VM [1]; library: Spectrum
  neuronal differentiation score: inactive: 0
ReNCell VM [2]; library: Spectrum
  dopaminergic neuron differentiation score: inactive: 0

## CC1(C)S[C@@H]2[C@H](NC(=O)[C@H](N)c3ccc(O)cc3)C(=O)N2[C@H]1C(=O)O
ReNCell VM [1]; library: Spectrum
  neuronal differentiation score: inactive: 0
ReNCell VM [2]; library: Spectrum
  dopaminergic neuron differentiation score: inactive: 0

## C/C(=C\C(=O)OCCCCCCCCC(=O)O)C[C@@H]1OC[C@H](C[C@@H]2O[C@H]2[C@@H](C)[C@H](C)O)[C@@H](O)[C@H]1O
ReNCell VM [1]; library: Spectrum
  neuronal differentiation score: inactive: 0
ReNCell VM [2]; library: Spectrum
  dopaminergic neuron differentiation score: inactive: 0

## Oc1ccc(OCc2ccccc2)cc1 [Monobenzone]
ReNCell VM [1]; library: Prestwick
  neuronal differentiation score: inactive: 0
ReNCell VM [2]; library: Prestwick
  dopaminergic neuron differentiation score: inactive: 0

## Nc1ccc(C(=O)Oc2ccccc2)c(O)c1
ReNCell VM [1]; library: Spectrum
  neuronal differentiation score: inactive: 0
ReNCell VM [2]; library: Spectrum
  dopaminergic neuron differentiation score: inactive: 0

## CCCCCCNC(=O)Nc1ccc(S(=O)(=O)Nc2ccc(CCNC[C@H](O)COc3ccc(O)cc3)cc2)cc1
ReNCell VM [1]; library: Tocriscreen
  neuronal differentiation score: inactive: 0
ReNCell VM [2]; library: Tocriscreen
  dopaminergic neuron differentiation score: inactive: 0

## Nc1ccc(S(=O)(=O)O)cc1.Nc1ccc(S(=O)(=O)O)cc1.[Zn]
ReNCell VM [1]; library: Spectrum
  neuronal differentiation score: inactive: 0
ReNCell VM [2]; library: Spectrum
  dopaminergic neuron differentiation score: inactive: 0

## C[C@]12C=CC(=O)C=C1CC[C@@H]1[C@@H]2[C@@H](O)C[C@@]2(C)[C@H]1CC[C@]2(O)C(=O)COC(=O)CCC(=O)O
ReNCell VM [1]; library: Spectrum
  neuronal differentiation score: inactive: 0
ReNCell VM [2]; library: Spectrum
  dopaminergic neuron differentiation score: inactive: 0

## C[C@]12CCC3c4ccc(OS(=O)(=O)O)cc4CCC3C1CC[C@H]2O (stereo partly drawn)
ReNCell VM [1]; library: Spectrum
  neuronal differentiation score: inactive: 0
ReNCell VM [2]; library: Spectrum
  dopaminergic neuron differentiation score: inactive: 0
